Results: PubChem BioAssay AID504834 (National Center for Advancing Translational Sciences (NCATS), 2011)
Hit rate of the full screen: of about 320,000 compounds, about 22,000 (6.9%) were called active. This list was built around the results that the source calls inconclusive (neither active nor inactive); the mix of calls is not that of the screen. The call rests on the fitted dose curve; in most records, active means well fitted inhibition curve with a large enough effect; inconclusive means small, poorly fitted or top-dose-only effect, or another doubt; inactive means no such curve, though single readings can be large or run the other way. Potencies of inconclusive entries are doubtful fits and often do not repeat.

test: Primary qHTS for delayed death inhibitors of the malarial parasite plastid, 96 hour incubation; settings: P. falciparum luciferase reporter growth; series mostly up to 28.7 µM; activity change, negative = inhibition: at the top concentration
Method in brief: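 Luminescence readout: decreased luciferase signal marks inhibited growth of reporter-expressing P. falciparum in infected red cells (2% hematocrit, 0.05% parasitemia final), exposed to compound two generations (96 h, 37 C, 5% CO2).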
On the % scale 0 is the no-effect control and ±100 the full control effect; potency means the concentration at half of the fitted maximal effect.

Compound	Potency	activity change, negative = inhibition
Cc1ccccc1S(=O)(=O)N1[C@@H](c2ccc(F)cc2)C(C(=O)O)=CC[C@H]1c1ccc(Cl)cc1	inconclusive: 13.1 µM [inhibitor, single point]	
COc1ccccc1C(=O)NC(CCSC)C(=O)NCC(c1cccs1)N1CCOCC1 (configuration not stated)		inactive: -3.03%
Cc1cc(C)c(NC(=O)CCCn2c(=O)oc3ccccc32)c(C)c1		inactive: -14.3%
O=C(O/N=C1\C(=O)N(c2ccccc2)c2ccccc21)C1CC1	inconclusive: 1.04 µM [inhibitor, full curve, poor fit]	
COc1cc(/C=N/NC(=O)c2ccc3nc[nH]c3c2)cc(OC)c1OC	inconclusive: 11.7 µM [inhibitor, single point]	
O=C(CSc1ccccc1)NCCCc1ccccc1	active: 14.7 µM	
Cc1nn(-c2ccccc2)c(Cl)c1/C=N/NC(=O)c1ccco1	inconclusive: 0.0828 µM [inhibitor, full curve, poor fit]	
Cc1ccc(C(=O)C(C)Oc2ccc3ccc(=O)oc3c2)cc1 (configuration not stated)	inconclusive: 18.5 µM [inhibitor, single point]	
COc1cccc(NC(=O)[C@H](CC(C)C)NC(=O)[C@@H]2Cc3ccccc3CN2)c1	inconclusive: 18.5 µM [inhibitor, single point]	
CCOC(=O)N1CCN(Cc2ccc(OCC(O)CN3CCCCC3)cc2)CC1 (configuration not stated)	inconclusive: 18.5 µM [inhibitor, partial curve, poor fit]	
Cc1cccc(C(=O)OCC(=O)Nc2ccc3c(c2)OCCO3)c1O		inactive: -21.7%
O=C(CN1N=C(c2ccccc2)CCC1=O)NCCN1CCc2ccccc2C1	inconclusive: 18.5 µM [inhibitor, single point]	
O=C(CSc1nncs1)Nc1cc(S(=O)(=O)N2CCOCC2)ccc1N1CCCC1	inconclusive: 10.4 µM [inhibitor, single point]	
CN=C1S/C(=C\c2ccc(O)c(Br)c2)C(=O)N1C		inactive: -1.85%
COc1ccc(OCC(=O)Nc2ccc3c(c2)CCC3)cc1		inactive: -9.41%
Cc1sc2nc(CN3CCOCC3)nc(Cl)c2c1C	inconclusive: 4.15 µM [inhibitor, full curve]	
CCOc1ccc(S(=O)(=O)N(C)c2ccc(OCC(=O)Nc3ccccc3F)cc2)cc1	inconclusive: 9.28 µM [inhibitor, partial curve, poor fit]	
O=[N+]([O-])c1cccnc1SCc1c(F)cccc1Cl	inconclusive: 11.7 µM [inhibitor, partial curve, poor fit]	
COc1ccccc1-c1nnc(NC(=O)c2ccccc2F)o1	inconclusive: 18.5 µM [inhibitor, single point]	
Cc1ccc(CC(=O)Nc2ccc(F)c([N+](=O)[O-])c2)cc1C	inconclusive: 9.28 µM [inhibitor, single point]	
O=[N+]([O-])c1ccc(NC(=S)NCc2ccc(F)cc2)cc1	active: 4.15 µM	
COc1ccc(NC(=O)CN(C)CC(=O)c2[nH]c(C)c(C(C)=O)c2C)cc1		inactive: 0.625%
COc1ccc(/C=C2\Sc3ccc(C(=O)NCCN4CCCCCC4)cc3N(C)C2=O)cc1		inactive: -3.85%
CCCS(=O)(=O)c1nc(S(=O)(=O)c2ccc(Cl)cc2)c(N2CCC(O)CC2)s1	inconclusive: 0.738 µM [inhibitor, full curve]	

Compound	Potency	activity change, negative = inhibition
Cc1ccc(-c2cc(C(=O)N3CCC(C)CC3)c3ccccc3n2)cc1	inconclusive: 18.5 µM [inhibitor, single point]	
CCN(CC)C(=O)c1[nH]cnc1C(=O)N[C@@H](CC(C)C)C(=O)OCc1ccccc1	inconclusive: 18.5 µM [inhibitor, single point]	
COc1cccc(NC(=O)c2cccc(S(=O)(=O)N3CCN(Cc4ccccc4)CC3)c2)c1	active: 7.38 µM	
NS(=O)(=O)c1ccc(CCNCc2ccccc2OCc2ccc(F)cc2)cc1	inconclusive: 14.7 µM [inhibitor, partial curve, poor fit]	
O=C(O)CN1c2cccc3cccc(c23)S1(=O)=O		inactive: 16.1%
O=C(Oc1c(CN2CCOCC2)cc(Cl)c2cccnc12)c1cccs1	active: 0.738 µM	
O=C(O)CSc1nnc(COc2cccc3cccnc23)n1-c1cccc(C(F)(F)F)c1	inconclusive: 6.57 µM [inhibitor, partial curve]	
COc1ccc2nc(C)cc(SCC(=O)NNC(=O)COc3cccc4ccccc34)c2c1	inconclusive: 18.5 µM [inhibitor, single point]	
CN1CCN(S(=O)(=O)c2cccc(C(=O)O)c2)CC1	inconclusive: 0.147 µM [inhibitor, full curve, poor fit]	
Cc1ccc(C2C(C#N)=C(N)Oc3n[nH]c(-c4ccccc4)c32)o1 (configuration not stated)	inconclusive: 11.7 µM [inhibitor, single point]	
O=C(NCc1ccccc1)NC1CC2CCC(C1)N2Cc1ccco1 (configuration not stated)		inactive: -21.2%
COc1ccc(CCn2c(=N)c(C(=O)NCc3ccco3)cc3c(=O)n4cccc(C)c4nc32)cc1	active: 0.586 µM	
NS(=O)(=O)c1cnccc1Nc1ccc(Cl)c(Cl)c1	inconclusive: 20.8 µM [inhibitor, partial curve, poor fit]	
O=C(c1ccc(F)c(F)c1)N1CCC2(CC1)NCCc1[nH]cnc12		inactive: 12.5%
CNc1snc(C)c1C(=O)OCC(=O)c1ccc(Cl)cc1	inconclusive: 18.5 µM [inhibitor, single point]	
CCOC(=O)c1ccc(N2C(=O)C3CCCN3C2=S)cc1 (configuration not stated)	inconclusive: 1.17 µM [inhibitor, partial curve, poor fit]	
CCOC(=O)c1cnc2c(c(C)nn2C)c1Oc1ccccc1F	inconclusive: 2.94 µM [inhibitor, full curve]	
O=C1NCC(COc2ccc(Cl)cc2)O1 (configuration not stated)		inactive: 7.03%
O=[N+]([O-])c1ccc(Cc2ccccn2)cc1	inconclusive: 1.04 µM [inhibitor, full curve]	
COc1ccc(C(=O)NCC(=O)OCc2ccc(F)cc2)cc1		inactive: 52.1%
CCCCCC1NC(=O)NC1CCCCCC(=O)O (configuration not stated)	inconclusive: 11.7 µM [inhibitor, single point]	
COC(=O)c1sc(NC(=O)C(C)C)c(C(=O)OC)c1C	inconclusive: 18.5 µM [inhibitor, single point]	
O=C1C2CCCN2C(c2cccnc2)N1c1ccc(Cl)cc1 (configuration not stated)		inactive: 18.3%
O=C(O)/C(=C1\OC(=O)c2ccccc21)c1ccccc1		inactive: -8.76%

Some values from the list.
For Potency, O=C(O)CSc1nnc(COc2cccc3cccnc23)n1-c1cccc(C(F)(F)F)c1 shows inconclusive: 6.57 µM [inhibitor, partial curve]
For Potency, CCCCCC1NC(=O)NC1CCCCCC(=O)O (configuration not stated) shows inconclusive: 11.7 µM [inhibitor, single point]
For Potency, CNc1snc(C)c1C(=O)OCC(=O)c1ccc(Cl)cc1 shows inconclusive: 18.5 µM [inhibitor, single point]
For activity change, negative = inhibition, O=C(NCc1ccccc1)NC1CC2CCC(C1)N2Cc1ccco1 (configuration not stated) shows inactive: -21.2%
For Potency, COc1cccc(NC(=O)c2cccc(S(=O)(=O)N3CCN(Cc4ccccc4)CC3)c2)c1 shows active: 7.38 µM
For Potency, CCOC(=O)c1ccc(N2C(=O)C3CCCN3C2=S)cc1 (configuration not stated) shows inconclusive: 1.17 µM [inhibitor, partial curve, poor fit]
For activity change, negative = inhibition, COc1ccc(C(=O)NCC(=O)OCc2ccc(F)cc2)cc1 shows inactive: 52.1%

Further results

Compound	Potency	activity change, negative = inhibition
CCN(Cc1ccncc1)C(=O)CC1C(=O)NCCN1Cc1ccc(F)c(F)c1 (configuration not stated)	inconclusive: 18.5 µM [inhibitor, single point]	
COc1ccc(OC)c(/C=N/NC(=O)c2ccc(=O)[nH]n2)c1	inconclusive: 18.5 µM [inhibitor, single point]	
O=C(Nc1ccc(Cl)c([N+](=O)[O-])c1)c1cnccn1	inconclusive: 2.62 µM [inhibitor, full curve, poor fit]	
Cc1ccccc1S(=O)(=O)Cc1ccc(C(=O)NCc2ccco2)o1	inconclusive: 10.4 µM [inhibitor, single point]	
COc1cccc(C(=O)NC(=S)Nc2ccccc2N2CCCCC2)c1	inconclusive: 20.8 µM [inhibitor, partial curve, poor fit]	
O=C(CSc1nnc(CCc2nc3ccccc3[nH]2)n1-c1ccccc1)NCc1ccccc1	active: 10.4 µM	
CCOC(=O)N1CCN(C(=O)c2ccc3c(c2)N(Cc2ccccc2)CCS3)CC1	active: 11.7 µM	
COc1ccc(N(CC(=O)NCCSCc2ccco2)S(=O)(=O)c2ccccc2)cc1Cl	inconclusive: 5.86 µM [inhibitor, single point]	
O=C(c1cc(COc2c(F)cccc2F)on1)N1C[C@H]2CC[C@H]1C2	inconclusive: 9.28 µM [inhibitor, partial curve]	
Cc1ccc(S(=O)(=O)N2CCCOC2CNC(=O)C(=O)NCc2ccccc2C)cc1 (configuration not stated)	inconclusive: 10.4 µM [inhibitor, single point]	
CN1CCN(c2ccc(S(=O)(=O)C(F)(F)F)cc2[N+](=O)[O-])CC1	inconclusive: 8.28 µM [inhibitor, partial curve]	
Cc1ccc(S(=O)(=O)N2CCC(C(=O)NCc3ccncc3)CC2)cc1		inactive: 94.1%
Cc1cc(/C=C2/NC(=O)N(Cc3ccccc3F)C2=O)c(C)n1C(C)C	active: 10.4 µM	
COc1ccc(NC(=S)NCc2ccc3c(c2)OCO3)cc1	active: 1.65 µM	
COc1ccc(O)c(CNn2c(-c3ccc(Br)cc3)nc3ccccc3c2=O)c1		inactive: -11.3%
O=C(O)CNC(=O)c1ccc(OC(F)F)cc1		inactive: -20.9%
COc1ccc(C[C@@H]2c3cc(O)c(OC)cc3CCN2C)cc1O		inactive: -18.3%
CCN(CC)CCOCCOc1ccc(Cl)c2ccccc12	inconclusive: 5.86 µM [inhibitor, partial curve, poor fit]	
CC(C)c1ccc(C2c3[nH]c4ccccc4c3C[C@H]3C(=O)N(c4ccccc4C(=O)N4CCC[C@@H]4C(=O)O)C(=O)N23)cc1 (some centres not stated)	active: 8.28 µM	
CCn1ncc(C2=NOC(C(=O)N3CCN(c4ccccc4)CC3)C2)c1C (configuration not stated)		inactive: 56.5%
O=C(Cc1cccc(C(F)(F)F)c1)NCC(=O)Nc1cc(Cl)ccc1Cl		inactive: 25.1%
O=C(CCN1C(=O)/C(=C/c2ccccc2F)SC1=S)NCCCN1CCOCC1		inactive: 6.72%
CCNc1ccccc(C(=O)/C=C/c2ccc3c(c2)OCO3)c1=O	inconclusive: 10.4 µM [inhibitor, partial curve, poor fit]	
COc1ccccc1N1CCN(C(=O)c2ccc([N+](=O)[O-])s2)CC1	inconclusive: 11.7 µM [inhibitor, single point]	
